This test has as its target HEK 293 GPR73 (prokineticin 1 receptor) expressing cells (Homo sapiens, UniProt Q8TCW9). Briefly: PK1 functional assay: screening for PK1 antagonists on the FLIPR (calcium fluorescence). To be noted: read-out: Ca^2+ Mobilization IC50, HEK 293 GPR73 cells, PK1 ligand at EC50, multiple values = repeat tests.

Sequences of proteins named here, by UniProt entry; tags and fusion partners are left off.
UniProt Q8TCW9, whole entry: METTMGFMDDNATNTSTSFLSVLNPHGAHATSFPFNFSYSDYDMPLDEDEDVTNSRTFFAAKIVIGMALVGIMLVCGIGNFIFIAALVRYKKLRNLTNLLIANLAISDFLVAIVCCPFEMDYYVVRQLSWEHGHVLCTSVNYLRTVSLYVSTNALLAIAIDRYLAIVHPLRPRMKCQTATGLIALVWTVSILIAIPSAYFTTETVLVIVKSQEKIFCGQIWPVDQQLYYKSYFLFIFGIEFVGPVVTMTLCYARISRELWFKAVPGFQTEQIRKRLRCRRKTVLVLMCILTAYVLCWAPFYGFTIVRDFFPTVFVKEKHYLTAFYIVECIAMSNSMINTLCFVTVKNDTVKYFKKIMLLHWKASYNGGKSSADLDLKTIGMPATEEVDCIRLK

Some entries of the source have several records that differ or are many. The other results are left out here. There may be further records. Results that share an entry appear to be repeats (runs, samples, wells or individuals).

A word on the IC50: it is the concentration at which inhibition is half-maximal. In the case of `CNC(=N)NCCNc1nc(=O)n(Cc2ccc(Cl)c(Cl)c2)c(=O)n1Cc1ccc(OC)cc1`, the IC50 is 11 nM and 46 nM.

Source of the values: patent US20080045535A1, “Prokineticin 2 receptor antagonists” (priority 2005, published 2008).
